The record followed here is publication doi:10.1101/2022.09.17.508354.

By UniProt entry, the sequences of proteins in these tests, tags left out. Residues count along the entry.
UniProt Q6ZLZ9: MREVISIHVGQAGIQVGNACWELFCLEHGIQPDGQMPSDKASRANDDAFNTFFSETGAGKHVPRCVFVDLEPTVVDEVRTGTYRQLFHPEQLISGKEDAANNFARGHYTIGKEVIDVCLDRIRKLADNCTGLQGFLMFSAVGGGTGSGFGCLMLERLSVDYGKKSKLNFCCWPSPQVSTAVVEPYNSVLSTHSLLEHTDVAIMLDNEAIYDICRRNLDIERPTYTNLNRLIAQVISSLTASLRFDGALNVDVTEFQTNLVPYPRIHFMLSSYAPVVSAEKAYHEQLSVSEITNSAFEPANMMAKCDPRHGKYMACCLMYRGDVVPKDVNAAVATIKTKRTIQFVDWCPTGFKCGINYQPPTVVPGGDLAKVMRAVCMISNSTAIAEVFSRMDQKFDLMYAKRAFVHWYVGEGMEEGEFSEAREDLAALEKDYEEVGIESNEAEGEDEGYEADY
UniProt Q8I0U8, residues 20-1694: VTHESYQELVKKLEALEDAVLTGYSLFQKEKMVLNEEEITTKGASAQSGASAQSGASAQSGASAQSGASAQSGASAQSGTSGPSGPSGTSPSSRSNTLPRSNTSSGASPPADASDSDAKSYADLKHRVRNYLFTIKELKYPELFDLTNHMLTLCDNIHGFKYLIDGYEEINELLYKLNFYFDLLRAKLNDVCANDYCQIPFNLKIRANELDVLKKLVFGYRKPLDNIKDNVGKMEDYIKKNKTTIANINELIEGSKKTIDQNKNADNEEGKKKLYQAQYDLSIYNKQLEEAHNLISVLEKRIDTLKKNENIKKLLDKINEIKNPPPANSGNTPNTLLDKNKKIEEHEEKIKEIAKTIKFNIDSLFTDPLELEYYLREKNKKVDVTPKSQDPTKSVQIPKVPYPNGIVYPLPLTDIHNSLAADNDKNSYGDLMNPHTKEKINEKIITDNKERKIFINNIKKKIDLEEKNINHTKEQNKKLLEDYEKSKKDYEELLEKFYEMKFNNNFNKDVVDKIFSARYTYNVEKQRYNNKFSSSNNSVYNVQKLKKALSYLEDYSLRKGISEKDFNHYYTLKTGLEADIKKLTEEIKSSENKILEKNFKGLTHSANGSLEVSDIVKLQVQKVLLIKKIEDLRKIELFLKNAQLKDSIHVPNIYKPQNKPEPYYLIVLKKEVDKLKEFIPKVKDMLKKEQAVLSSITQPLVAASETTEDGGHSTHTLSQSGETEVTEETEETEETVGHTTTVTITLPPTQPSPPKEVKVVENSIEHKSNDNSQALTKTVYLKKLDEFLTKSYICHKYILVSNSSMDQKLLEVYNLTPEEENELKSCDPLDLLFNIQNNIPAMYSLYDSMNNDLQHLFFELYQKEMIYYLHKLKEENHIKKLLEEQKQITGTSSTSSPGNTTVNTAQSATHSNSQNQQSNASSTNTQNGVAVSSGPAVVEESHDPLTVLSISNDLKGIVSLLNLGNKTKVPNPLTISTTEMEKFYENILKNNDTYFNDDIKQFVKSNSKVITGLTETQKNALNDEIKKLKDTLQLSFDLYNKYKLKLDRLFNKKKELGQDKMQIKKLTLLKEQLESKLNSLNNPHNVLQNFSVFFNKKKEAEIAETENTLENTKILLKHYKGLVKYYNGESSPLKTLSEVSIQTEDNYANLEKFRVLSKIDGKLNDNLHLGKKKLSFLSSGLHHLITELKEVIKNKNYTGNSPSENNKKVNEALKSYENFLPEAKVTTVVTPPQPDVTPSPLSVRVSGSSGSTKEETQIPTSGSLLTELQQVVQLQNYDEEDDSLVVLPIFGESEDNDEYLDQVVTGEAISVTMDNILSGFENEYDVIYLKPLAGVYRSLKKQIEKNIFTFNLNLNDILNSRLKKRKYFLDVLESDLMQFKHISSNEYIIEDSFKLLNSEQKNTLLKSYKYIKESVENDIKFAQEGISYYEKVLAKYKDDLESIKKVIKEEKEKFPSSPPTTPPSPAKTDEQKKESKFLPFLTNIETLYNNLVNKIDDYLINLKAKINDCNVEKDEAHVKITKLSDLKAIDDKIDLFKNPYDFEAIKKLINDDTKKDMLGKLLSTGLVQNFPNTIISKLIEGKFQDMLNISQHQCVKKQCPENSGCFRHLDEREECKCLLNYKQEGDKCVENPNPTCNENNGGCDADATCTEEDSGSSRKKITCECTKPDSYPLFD

Assay [1] concerns the target T1, recombinant 6x-His-PfPFD2 (Plasmodium falciparum 3D7 prefoldin subunit 2) (Plasmodium falciparum 3D7) (UniProt Q8ILS7).
T1 sequence: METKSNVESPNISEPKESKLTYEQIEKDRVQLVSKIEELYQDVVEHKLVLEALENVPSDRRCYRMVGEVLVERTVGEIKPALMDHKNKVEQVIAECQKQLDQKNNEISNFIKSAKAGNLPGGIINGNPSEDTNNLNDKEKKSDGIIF
The experiment in a line: ELISA.

Assay [2] concerns the target T2, recombinant 6x-His-PfPFD4 (Plasmodium falciparum 3D7 prefoldin subunit 4) (Plasmodium falciparum 3D7) (UniProt Q8I3A4).
T2 sequence: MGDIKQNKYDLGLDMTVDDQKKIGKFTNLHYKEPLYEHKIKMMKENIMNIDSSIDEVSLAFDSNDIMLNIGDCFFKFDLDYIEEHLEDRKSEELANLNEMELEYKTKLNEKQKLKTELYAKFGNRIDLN
The experiment in a line: ELISA.

Assay [3] has as its target T3, recombinant 6x-His-PfPFD5 (Plasmodium falciparum 3D7 prefoldin subunit 5) (Plasmodium falciparum 3D7) (UniProt Q8II82).
T3 sequence (chain, RED-NHS dye label (where it was the labelled partner in MST)): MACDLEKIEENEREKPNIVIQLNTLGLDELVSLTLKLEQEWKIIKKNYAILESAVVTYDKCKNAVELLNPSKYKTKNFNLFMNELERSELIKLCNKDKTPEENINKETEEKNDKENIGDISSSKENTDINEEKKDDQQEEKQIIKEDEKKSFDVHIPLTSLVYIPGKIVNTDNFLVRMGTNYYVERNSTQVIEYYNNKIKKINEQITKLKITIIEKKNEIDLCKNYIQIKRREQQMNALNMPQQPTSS
The experiment in a line: ELISA.

The target of assay [4] is T4, native PfPFD2 in P. falciparum 3D7 parasite lysate (Plasmodium falciparum 3D7 (endogenous in parasite lysate)) (UniProt Q8ILS7).
T4 sequence: T1 sequence
The experiment in a line: co-IP.

Results are given in words; binding and its absence hold for the method and conditions named. For some assays here: Binding seen in cells or lysates may run through a third protein. Some binding calls cover weakened binding; strength is not graded here. For some assays here: Tags and fused reporters may be left off the sequences shown.

Take “Pfα-tubulin-I (protein used in ELISA and SPR) (from UniProt Q6ZLZ9 1-453)”: the binding entry in assay [1], in assay [2] and in assay [3] was “binds” each time.
For the substance “native PfMSP-1 (merozoite surface protein 1) in P. falciparum 3D7 parasite lysate (from UniProt Q8I0U8 20-1694)”, the binding entry in assay [4] was “binds”.
On the same count and under the same terms, the value for “native α-tubulin-I in P. falciparum 3D7 parasite lysate (from UniProt Q6ZLZ9 1-453)” was “binds”.
